# Measurements from PubChem BioAssay AID1347075 (National Center for Advancing Translational Sciences (NCATS), 2019).
# Several values for one entry are separate records, joined by “and”; a condition that tells them apart may be missing. Identical values can stand only once. Out of some 400,000 compounds screened, about 5,500 (1.4%) were called active. Inconclusive means that the source gave no clear call. Such entries were picked first, then a sample of the others. Calls follow the shape of the dose curve; as a rule, active = well fitted cell-killing curve with a large enough effect; inconclusive = small, poorly fitted or top-dose-only effect, or effect the other way; inactive = flat fitted curve, though single readings scatter. Potencies of inconclusive entries are doubtful fits and often do not repeat.
# Assay: qHTS assay for MDR1-selective chemotherapeutics: Primary screen using the parental adenocarcinoma cell KB-3-1; also: nearly all actives have a fitted effect of over 60% in size
# Details: KB-3-1 viability, CellTiter-Glo ATP luminescence, 72 h; series mostly up to 46.1 µM
# How it was run: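 Cytotoxicity measured as CellTiter-Glo luminescence after 72 h at 37 C. Compound titrations were pinned onto drug-naive KB-3-1 parental adenocarcinoma cells grown in DMEM with 10% FBS, and normalized data fitted to concentration-response curves.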
# Potency is read from the fitted curve at half-maximal effect.
row,SMILES,Potency
1,Cc1ccc(C)c(C(=O)C[n+]2cccc(Br)c2)c1,"inconclusive: 23.1 µM [rising, partial curve, poor fit]"
2,CC(=O)Nc1ccc(NC(=O)C(C)OC(=O)c2ccccc2C(=O)c2ccc(Cl)c([N+](=O)[O-])c2)cc1 (centres undefined),"inconclusive: 29.1 µM [cytotoxic, single point]"
3,Cc1cc2cc(CN(Cc3ccco3)C(=O)NCc3ccccc3)c(=O)[nH]c2cc1C,"inconclusive: 23.1 µM [rising, partial curve, poor fit]"
4,N#CC1=C2SCC(O)(c3ccccc3)N2C(=O)CC1c1ccccc1F (centres undefined),active: 9.2 µM
5,O=C(CNS(=O)(=O)c1ccc(Br)s1)NCc1ccccc1,inactive
6,O=c1oc2ccccc2cc1-c1cn(-c2ccccc2)c(=S)[nH]1,active: 3.66 µM
7,Cc1nnc(N2CCC(C(=O)N3CCCCC3)CC2)c2nn(-c3ccc(Cl)cc3)c(C)c12,"inconclusive: 32.6 µM [cytotoxic, single point]"
8,O=C1CN(C(=O)c2cccc(Br)c2)c2ccccc2N1,active: 5.8 µM
9,CCCCNc1c(-c2ccc(OC)c(SC3CCCCC3)c2)nc2cc(C)ccn12,"inconclusive: 18.4 µM [cytotoxic, single point]"
10,COc1cc(/C=C2\CC/C(=C\c3cc(OC)c(O)c(OC)c3)C2=O)cc(OC)c1O,active: 16.4 µM
11,CCOc1ccccc1Nc1sc(C(=O)c2ccccc2)c(N)c1C(=O)Nc1ccccc1,"inconclusive: 29.1 µM [cytotoxic, single point]"
12,Cn1cc(/C=N/n2cnc3scc(-c4ccc(Cl)cc4)c3c2=O)c2ccccc21,"inconclusive: 0.366 µM [cytotoxic, full curve, poor fit]"
13,O=C(O)c1ccc(Cl)c(NC(=O)C2CCN(S(=O)(=O)c3cccs3)CC2)c1,inactive
14,COc1ccc(-c2nn3c(=O)cc(CN4CCN(C(=O)c5ccc(OC)c(OC)c5)CC4)nc3s2)cc1,inactive
15,O=[N+]([O-])c1ccccc1C=NNC(=S)NN=Cc1ccccc1[N+](=O)[O-],"inconclusive: 29.1 µM [cytotoxic, single point]"
16,CC(C)(C)n1nnnc1C(c1cc2ccccc2o1)N(CCC#N)Cc1ccccc1 (centres undefined),"inconclusive: 25.9 µM [cytotoxic, partial curve, poor fit]"
17,CCCCCN(C(=O)CCC(=O)OCc1ccccc1F)c1c(N)n(CCCC)c(=O)[nH]c1=O,"inconclusive: 32.6 µM [rising, single point]"
18,Cc1cnc2ccccc2c1/C=C/c1ccc(N(C)C)cc1,"inconclusive: 23.1 µM [cytotoxic, single point]"
19,O=[N+]([O-])c1ccccc1S(=O)(=O)N(CC(O)CN1CCCCC1)c1ccccc1 (centres undefined),"inconclusive: 0.517 µM [rising, full curve]"
20,CCCOc1cccc(C(=O)N(Cc2ccccc2)C2CCS(=O)(=O)C2)c1 (centres undefined),inactive
21,COc1cc(NC(=O)CN2c3ccccc3S(=O)(=O)c3ccccc32)cc(OC)c1,inactive
22,Cc1cc(C)n(-c2nc(SCC(=O)O)c3c4c(sc3n2)COC(C)(C)C4)n1,inactive
23,O=C1CC(NNc2ccccc2)C(=O)N1c1ccc(N2CCCCC2)cc1 (centres undefined),inactive

row,SMILES,Potency
1,CCOC(=O)N1CCN(C(=O)C2CCC(=O)N(Cc3cccc(C(F)(F)F)c3)C2)CC1 (centres undefined),inactive
2,COc1ccc2nc(NCc3ccccc3)[nH]c2c1,active: 9.2 µM
3,Cc1cccnc1NC(=S)Nc1ncccc1C,"inconclusive: 16.4 µM [cytotoxic, single point]"
4,Cc1ccc(Nc2nnc(-c3ccc(C)c(S(=O)(=O)N4CCN(C)CC4)c3)c3ccccc23)cc1,"inconclusive: 29.1 µM [cytotoxic, single point]"
5,CCOc1c(C)cc(-c2ncccc2O)cc1C,"inconclusive: 18.4 µM [cytotoxic, single point]"
6,FC(F)c1nc2nc(Cl)c(Cl)nc2[nH]1,"inconclusive: 29.1 µM [cytotoxic, single point]"
7,O=C(CCC(=O)c1ccc(Cl)cc1)OCn1nnc2ccccc2c1=O,"inconclusive: 29.1 µM [rising, single point]"
8,CC1CCN(S(=O)(=O)c2ccc(C(=O)N3CCN(c4ccccc4F)CC3)cc2)CC1,"inconclusive: 23.1 µM [cytotoxic, partial curve, poor fit]"
9,CCOC(=O)C1(CCOc2ccccc2)CCN(Cc2ccc(OC)c(O)c2)CC1,inactive
10,OC(CN=c1sc2ccccc2n1CC(O)COc1ccccc1)COc1ccccc1 (centres undefined),"inconclusive: 16.4 µM [cytotoxic, single point]"
11,CC(=O)c1ccc(NC(=O)c2ccc3c(c2)C(=O)N(c2ccccn2)C3=O)cc1,"inconclusive: 29.1 µM [rising, single point]"
12,COc1ccc(Cc2noc(CN(C)C3CC(C)(C)NC(C)(C)C3)n2)cc1OC,inactive
13,COc1ccc(N=C(C)C2=C(O)c3ccccc3C2=O)cc1,inactive
14,O=S(=O)(CCN1CCOCC1)c1ccc(Oc2ccc(S(=O)(=O)CCN3CCOCC3)cc2)cc1,"inconclusive: 8.2 µM [cytotoxic, partial curve]"
15,COC(=O)[C@@]12CCCCN1[C@H](c1ccc(-c3ccc(F)cc3)cc1)[C@@H]1C(=O)N(C)C(=O)[C@@H]12,"inconclusive: 29.1 µM [cytotoxic, single point]"
16,CNc1ccccc1C(C)(C)c1cc(-c2cccc(Br)c2)no1,active: 23.1 µM
17,COc1ccc(-c2nnc(SCC(=O)N(Cc3ccccc3)C(C)(C)C)o2)cc1OC,"inconclusive: 29.1 µM [cytotoxic, single point]"
18,Cc1cc(Oc2ccccc2)nc(SCC(N)=O)n1,inactive
19,CC(NC(=O)c1c(N)[nH]c(C(=O)c2ccccc2)c1-c1ccccc1Br)c1cccc2ccccc12 (centres undefined),"inconclusive: 29.1 µM [cytotoxic, single point]"
20,Cc1ccc(-c2csc(NC(=O)C3CC(=O)N(c4ccc5c(c4)OCCO5)C3)n2)o1 (centres undefined),"inconclusive: 32.6 µM [cytotoxic, single point]"
21,CC(C(=O)Nc1ccc(O)c(C(=O)O)c1)N1C(=O)/C(=C/c2cccs2)SC1=S (centres undefined),"inconclusive: 29.1 µM [cytotoxic, single point]"
22,C/C(=N/NC(=O)c1cccc(C)c1)c1c(O)cc(C)oc1=O,"inconclusive: 25.9 µM [cytotoxic, single point]"
23,CN(C)CC/C=C1/c2ccccc2Sc2c(O)cc(Cl)cc21,"inconclusive: 18.4 µM [cytotoxic, single point]"

row,SMILES,Potency
1,CCc1ccc(NC(=O)CN(c2ccc(C)cc2)S(=O)(=O)c2cccs2)cc1,inactive
2,O=C(O)CCCCn1c(SCC(=O)Nc2ccccc2C(F)(F)F)nc2ccsc2c1=O,inactive
3,CC1=Nc2cc(C(=O)NCCCOC(C)C)ccc2Sc2ccccc21,"inconclusive: 23.1 µM [cytotoxic, single point]"
4,Cc1ccc(OCCCn2cc(C#N)c3ccccc32)cc1,"inconclusive: 13 µM [cytotoxic, partial curve, poor fit]"
5,c1ccc(-c2onc(-c3ccco3)c2-c2ccc3[nH]ccc3c2)cc1,"inconclusive: 20.6 µM [cytotoxic, single point] and inconclusive: 29.1 µM [cytotoxic, single point]"
6,Cc1cc(C)c2c(N)c3cccc(C)c3nc2n1,active: 7.31 µM
7,Cn1c([N+](=O)[O-])cnc1N1CCN(c2nncs2)C1=O,inactive
8,CSc1ccc(CCNC(=O)CCc2nnc3ccc(N4CCOCC4)nn23)cc1,"inconclusive: 2.91 µM [cytotoxic, full curve]"
9,O=C(NCc1ccco1)/C(=C/C=C\c1ccccc1)NC(=O)c1ccc(Br)o1,"inconclusive: 18.4 µM [cytotoxic, single point]"
10,COC(=O)c1ccc(C(=O)NC2CCCc3c2cnn3-c2ccc(C)c(C)c2)cc1 (centres undefined),active: 1.64 µM
11,Cc1ccc2c(=O)cc(C(=O)Nc3ccc(S(=O)(=O)N4CCC(C)CC4)cc3)oc2c1C,inactive
12,CC(=O)OCC(=O)[C@H]1CC[C@H]2[C@@H]3CCC4=CC(=O)CC[C@]4(C)[C@H]3CC[C@]12C,"inconclusive: 20.6 µM [cytotoxic, single point]"
13,COc1ccc(NC(=O)c2oc3ccccc3c2NC(=O)C2CCCO2)cc1OC (centres undefined),"inconclusive: 29.1 µM [rising, single point]"
14,CCc1ccc(-c2cc(C)no2)cc1S(=O)(=O)N1CCN(c2ccc(OC)cc2)CC1,"inconclusive: 20.6 µM [cytotoxic, single point]"
15,C/C(=N\NC(=O)c1cccc(N2CCCC2=O)c1)c1ccc(N)cc1,"inconclusive: 25.9 µM [rising, partial curve, poor fit]"
16,O=C(c1c(F)cccc1F)N1CCCC(c2nc(-c3ccc(Cl)cc3)no2)C1 (centres undefined),active: 18.4 µM
17,COc1ccc(/C=C(/NC(=O)c2ccccc2)c2nc3ccccc3[nH]2)cc1OC,inactive
18,Cc1ccccc1C(=O)Nc1cccc(-c2ccc(N3CCOCC3)nn2)c1,"inconclusive: 20.6 µM [rising, single point]"
19,O=C(Cc1ccccc1)Nc1sc2c(c1C(=O)Nc1ccccc1)CCCCC2,inactive
20,O=c1oc2c(O)cccc2cc1-c1nc2ccccc2[nH]1,active: 20.6 µM
21,CN(Cc1ccccc1F)C(=O)CCNC(=O)c1ccc(C(C)(C)C)cc1,inactive
22,Cc1csc2nc(SCC(=O)Nc3ccccc3F)[nH]c(=O)c12,"inconclusive: 32.6 µM [cytotoxic, single point]"
23,CCOC(=O)c1c(C)c(C(=O)Nc2ccc3c(c2)OCCO3)c(C)n1C,"inconclusive: 23.1 µM [cytotoxic, single point]"
